{"source": "PubChem BioAssay AID1259308 (NCATS, 2017)", "test": "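Genes whose loss raises luciferase production in HEK293 cells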 (primary screen)", "system": "human HEK293 embryonic kidney cells stably expressing firefly luciferase (HEK-CMV-Luc2-Hygro)", "reagents": "single siRNA against human genes, 0.8 pmol siRNA per well", "duration": "72 h", "read-out": "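Reporter luminescence and viable-cell signal on separate replicate plates, given as percent of non-targeting control and median/MAD z-scores, plus per-cell luciferase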", "direction": "total luciferase, z-score: higher = more reporter protein produced", "call rule": "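Active when the median/MAD z-score for overall luciferase is greater than 3; a gene was taken forward for validation with new siRNAs if at least two of its three siRNAs passed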", "calls": "active = raised luciferase; inactive = no rise", "note": "In all, the deposit lists about 59,000 reagents; this is an unselected part. In the full data, about 1,510 (2.6%) are marked active. 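Calls use total luciferase alone and ignore viability, so some active siRNAs may act by altering cell number.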 Reagents against one gene are numbered here. Not all columns of the deposit are shown."}
{"gene knocked down": "PSG4 (pregnancy specific beta-1-glycoprotein 4)", "siRNA no.": 1, "total luciferase, z-score": -1.41, "outcome": "inactive"}
{"gene knocked down": "PSG4 (pregnancy specific beta-1-glycoprotein 4)", "siRNA no.": 2, "total luciferase, z-score": 1.01, "outcome": "inactive"}
{"gene knocked down": "PSG4 (pregnancy specific beta-1-glycoprotein 4)", "siRNA no.": 3, "total luciferase, z-score": 0.955, "outcome": "inactive"}
{"gene knocked down": "P3H1 (prolyl 3-hydroxylase 1)", "siRNA no.": 1, "total luciferase, z-score": -0.225, "outcome": "inactive"}
{"gene knocked down": "P3H1 (prolyl 3-hydroxylase 1)", "siRNA no.": 2, "total luciferase, z-score": -0.72, "outcome": "inactive"}
{"gene knocked down": "P3H1 (prolyl 3-hydroxylase 1)", "siRNA no.": 3, "total luciferase, z-score": -2.11, "outcome": "inactive"}
{"gene knocked down": "RPL7P46 (ribosomal protein L7 pseudogene 46)", "siRNA no.": 1, "total luciferase, z-score": 1.13, "outcome": "inactive"}
{"gene knocked down": "RPL7P46 (ribosomal protein L7 pseudogene 46)", "siRNA no.": 2, "total luciferase, z-score": 0.543, "outcome": "inactive"}
{"gene knocked down": "RPL7P46 (ribosomal protein L7 pseudogene 46)", "siRNA no.": 3, "total luciferase, z-score": -0.643, "outcome": "inactive"}
{"gene knocked down": "BHLHE41 (basic helix-loop-helix family member e41)", "siRNA no.": 1, "total luciferase, z-score": -0.517, "outcome": "inactive"}
{"gene knocked down": "BHLHE41 (basic helix-loop-helix family member e41)", "siRNA no.": 2, "total luciferase, z-score": -0.296, "outcome": "inactive"}
{"gene knocked down": "BHLHE41 (basic helix-loop-helix family member e41)", "siRNA no.": 3, "total luciferase, z-score": 0.337, "outcome": "inactive"}
{"gene knocked down": "PIWIL2 (piwi like RNA-mediated gene silencing 2)", "siRNA no.": 1, "total luciferase, z-score": -1.67, "outcome": "inactive"}
{"gene knocked down": "PIWIL2 (piwi like RNA-mediated gene silencing 2)", "siRNA no.": 2, "total luciferase, z-score": -1.2, "outcome": "inactive"}
{"gene knocked down": "PIWIL2 (piwi like RNA-mediated gene silencing 2)", "siRNA no.": 3, "total luciferase, z-score": -0.516, "outcome": "inactive"}
{"gene knocked down": "RPL23P5 (ribosomal protein L23 pseudogene 5)", "siRNA no.": 1, "total luciferase, z-score": 0.655, "outcome": "inactive"}
{"gene knocked down": "RPL23P5 (ribosomal protein L23 pseudogene 5)", "siRNA no.": 2, "total luciferase, z-score": -2.47, "outcome": "inactive"}
{"gene knocked down": "RPL23P5 (ribosomal protein L23 pseudogene 5)", "siRNA no.": 3, "total luciferase, z-score": -2.74, "outcome": "inactive"}
{"gene knocked down": "HSD17B8 (hydroxysteroid 17-beta dehydrogenase 8)", "siRNA no.": 1, "total luciferase, z-score": 0.504, "outcome": "inactive"}
{"gene knocked down": "HSD17B8 (hydroxysteroid 17-beta dehydrogenase 8)", "siRNA no.": 2, "total luciferase, z-score": -2.21, "outcome": "inactive"}
{"gene knocked down": "HSD17B8 (hydroxysteroid 17-beta dehydrogenase 8)", "siRNA no.": 3, "total luciferase, z-score": 1.19, "outcome": "inactive"}
{"gene knocked down": "KRT18 (keratin 18)", "siRNA no.": 1, "total luciferase, z-score": 0.102, "outcome": "inactive"}
{"gene knocked down": "KRT18 (keratin 18)", "siRNA no.": 2, "total luciferase, z-score": -0.161, "outcome": "inactive"}
{"gene knocked down": "KRT18 (keratin 18)", "siRNA no.": 3, "total luciferase, z-score": -0.751, "outcome": "inactive"}

The list goes on; the last 4 above are carried over.
{"gene knocked down": "HSD17B8 (hydroxysteroid 17-beta dehydrogenase 8)", "siRNA no.": 3, "total luciferase, z-score": 1.19, "outcome": "inactive"}
{"gene knocked down": "KRT18 (keratin 18)", "siRNA no.": 1, "total luciferase, z-score": 0.102, "outcome": "inactive"}
{"gene knocked down": "KRT18 (keratin 18)", "siRNA no.": 2, "total luciferase, z-score": -0.161, "outcome": "inactive"}
{"gene knocked down": "KRT18 (keratin 18)", "siRNA no.": 3, "total luciferase, z-score": -0.751, "outcome": "inactive"}
{"gene knocked down": "PAX1 (paired box 1)", "siRNA no.": 1, "total luciferase, z-score": -1.58, "outcome": "inactive"}
{"gene knocked down": "PAX1 (paired box 1)", "siRNA no.": 2, "total luciferase, z-score": 0.224, "outcome": "inactive"}
{"gene knocked down": "PAX1 (paired box 1)", "siRNA no.": 3, "total luciferase, z-score": 0.687, "outcome": "inactive"}
{"gene knocked down": "SIAE (sialic acid acetylesterase)", "siRNA no.": 1, "total luciferase, z-score": 1.14, "outcome": "inactive"}
{"gene knocked down": "SIAE (sialic acid acetylesterase)", "siRNA no.": 2, "total luciferase, z-score": -1.02, "outcome": "inactive"}
{"gene knocked down": "SIAE (sialic acid acetylesterase)", "siRNA no.": 3, "total luciferase, z-score": 0.488, "outcome": "inactive"}
{"gene knocked down": "HAO2 (hydroxyacid oxidase 2)", "siRNA no.": 1, "total luciferase, z-score": -0.206, "outcome": "inactive"}
{"gene knocked down": "HAO2 (hydroxyacid oxidase 2)", "siRNA no.": 2, "total luciferase, z-score": -1.01, "outcome": "inactive"}
{"gene knocked down": "HAO2 (hydroxyacid oxidase 2)", "siRNA no.": 3, "total luciferase, z-score": -0.266, "outcome": "inactive"}
{"gene knocked down": "TRIM53BP (tripartite motif containing 53B, pseudogene)", "siRNA no.": 1, "total luciferase, z-score": -0.376, "outcome": "inactive"}
{"gene knocked down": "TRIM53BP (tripartite motif containing 53B, pseudogene)", "siRNA no.": 2, "total luciferase, z-score": 0.00251, "outcome": "inactive"}
{"gene knocked down": "TRIM53BP (tripartite motif containing 53B, pseudogene)", "siRNA no.": 3, "total luciferase, z-score": 2.43, "outcome": "inactive"}
{"gene knocked down": "DDX51 (DEAD-box helicase 51)", "siRNA no.": 1, "total luciferase, z-score": -0.45, "outcome": "inactive"}
{"gene knocked down": "DDX51 (DEAD-box helicase 51)", "siRNA no.": 2, "total luciferase, z-score": 1.65, "outcome": "inactive"}
{"gene knocked down": "DDX51 (DEAD-box helicase 51)", "siRNA no.": 3, "total luciferase, z-score": -1.17, "outcome": "inactive"}
{"gene knocked down": "FLVCR1 (FLVCR choline and heme transporter 1)", "siRNA no.": 1, "total luciferase, z-score": -1.11, "outcome": "inactive"}
{"gene knocked down": "FLVCR1 (FLVCR choline and heme transporter 1)", "siRNA no.": 2, "total luciferase, z-score": 0.0777, "outcome": "inactive"}
{"gene knocked down": "FLVCR1 (FLVCR choline and heme transporter 1)", "siRNA no.": 3, "total luciferase, z-score": -0.752, "outcome": "inactive"}
